Measurements published in PubChem BioAssay AID540303 (National Center for Advancing Translational Sciences (NCATS), 2011).
Out of some 330,000 compounds screened, about 1,000 (0.3%) were called active. Inconclusive results, whose numbers are uncertain, are shown with a selection of clear calls. Calls come from the whole dose curve; as a rule, active = well fitted inhibition curve with a large enough effect; inconclusive = small, poorly fitted or top-dose-only effect; inactive = no such curve, though single readings can be large or run the other way; tested in mouse RAW 264.7 cells. A potency beside an inconclusive call is a rough fit, not a confirmed value.

Experiment: qHTS for Inhibitors of Cell Surface uPA Generation; note: nearly all actives have a fitted effect of over 55% in size
Conditions: cell surface uPA generation assay; series mostly up to 38.3 µM; activity change, negative = inhibition: at the top concentration
Method in brief: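 RAW 264.7 cells (4000/well) were plated overnight at 37 C and then given compounds in a 1:5 series (up to 38.3 uM final) plus reagent for 24 h. Intracellular ATP was measured by ATP-Lite luminescence and stays elevated when uPA-dependent LF entry is blocked.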
% is set by controls: 0 for no effect and ±100 for the full control effect; potency is the fitted concentration of half-maximal effect.

SMILES | Potency | activity change, negative = inhibition
C[C@]12CC[C@@H]3c4cc(O)c(O)cc4CC[C@H]3[C@@H]1CC[C@@H]2O | inconclusive: 1.12 µM [inhibitor, full curve, poor fit] | –
CCN(CC)S(=O)(=O)c1ccc(Cl)c(C(=O)Nc2ccc(Cl)cc2[N+](=O)[O-])c1 | inconclusive: 12.6 µM [inhibitor, single point] | –
O=C(Nc1cccnc1)c1cc(-c2cc(Cl)ccc2O)n[nH]1 | inconclusive: 11.2 µM [inhibitor, partial curve, poor fit] | –
CCC(=O)NCCc1nc2cc(NC(=O)Nc3ccccc3)ccc2n1C | inconclusive: 7.08 µM [inhibitor, partial curve] | –
CC(=O)Nc1ccc(S(=O)(=O)NCC2CC3CCC2C3)cc1 (stereo not given) | – | inactive: 1.44%
COc1cc(S(=O)(=O)N(Cc2ccc(C)cc2)C2CCCCC2)ccc1-n1cnnn1 | – | inactive: 16.7%
COc1ccc(-n2c(=O)c3ccccc3n(Cc3ccccc3F)c2=O)cc1OC | – | inactive: 24.3%
COc1ccc(N2CCN(C(=O)c3ccc(CNS(=O)(=O)c4ccc(C)cc4)cc3)CC2)cc1 | – | inactive: -6.1%
O=C1c2nc3cc(-c4ccco4)[nH]n3c(=O)c2CN1C1CCCCC1 | inconclusive: 6.31 µM [inhibitor, partial curve, poor fit] | –
CCOc1cc(C(=O)N(C)CC(=O)Nc2cccc3ccccc23)ccc1OC | inconclusive: 0.0141 µM [inhibitor, full curve, poor fit] | –
COc1ccc(CN(C)C(=O)c2ccc(Cl)c(S(=O)(=O)NCc3cccnc3)c2)cc1F | inconclusive: 10 µM [inhibitor, partial curve] | –
CCCOc1ccc(/C=N/Nc2ccccc2[N+](=O)[O-])c(O)c1 | – | inactive: 0.393%
CCC1CCCCN1C(=O)CSc1nnc(-c2cccs2)o1 (stereo not given) | – | inactive: -3.97%
COc1ccc2nc(NC(=O)Nc3ccccc3)sc2c1 | inconclusive: 7.94 µM [inhibitor, partial curve, poor fit] | –
O=C(Nc1ccncc1)c1ccc(Br)cc1 | – | inactive: -15%
O=S(=O)(c1ccc(Cl)cc1)N1CCN(c2ncnc3sccc23)CC1 | inconclusive: 8.91 µM [inhibitor, single point] | –
CCOc1ccc2nc(NC(=O)C3CCCN(S(=O)(=O)c4c(C)noc4C)C3)sc2c1 (stereo not given) | inconclusive: 12.6 µM [inhibitor, single point] | –
Cc1cc(C)nc(/N=C(\N)Nc2cccc(OCc3ccccc3)c2)n1 | active: 7.08 µM | –
CC(=O)Oc1ccc(C(=O)Cc2ccc3ccccc3n2)c(O)c1C | inconclusive: 0.0126 µM [inhibitor, full curve, poor fit] | –
COc1ccc(-c2nc3c(s2)CCc2onc(-c4ccc(OC)cc4)c2-3)cc1 | inconclusive: 1.12 µM [inhibitor, single point] | –
CCCCNC(=O)C1CC(c2c(Cl)cccc2Cl)=NO1 (stereo not given) | inconclusive: 7.94 µM [inhibitor, single point] | –
O=c1[nH]nnc2c1cnn2-c1ccccc1 | – | inactive: 0.307%
Cc1ccc(-c2nc(CN3CCCCC3)cc(CN3CCCCC3)c2O)cc1 | – | inactive: 1.81%
O=C(NCCNc1ccc([N+](=O)[O-])cc1C(F)(F)F)c1ccccc1 | – | inactive: -0.0804%

SMILES | Potency | activity change, negative = inhibition
Cc1ccc(OCC(=O)c2cc(C)c(C)cc2C)c([N+](=O)[O-])n1 | – | inactive: -5.77%
Cc1n[nH]c(=O)c2c(NC(=O)CSc3nnnn3-c3ccc(O)cc3)oc(C)c12 | – | inactive: -0.838%
CCCCCCCN1C(Nc2ccccc2)=NC[C@@H]1C | inconclusive: 10 µM [inhibitor, partial curve, poor fit] | –
O=c1oc2cc(O)ccc2c2oc3cc(O)ccc3c12 | inconclusive: 10 µM [inhibitor, single point] | –
Cc1noc(/C=C/c2cccs2)c1S(=O)(=O)N1CCC(C(=O)NCCCN2CCCC(C)C2)CC1 (stereo not given) | inconclusive: 7.08 µM [inhibitor, partial curve] | –
COc1ccc(-c2nc(C#N)c(N3CC(C)OC(C)C3)o2)cc1OC (stereo not given) | – | inactive: 4.2%
COc1ccc(NC(=S)NCCN2CCC(C)CC2)cc1 | inconclusive: 1 µM [inhibitor, full curve, poor fit] | –
CCOc1ccc(CCNC(=O)CSc2n[nH]c(N)n2)cc1OCC | inconclusive: 10 µM [inhibitor, partial curve, poor fit] | –
O=C(COc1cc2oc(=O)c3c(c2cc1Cl)CCC3)NCCCn1ccnc1 | – | inactive: -14.6%
CCOc1ccccc1N(CC(=O)N1CCC(C)CC1)S(=O)(=O)c1ccc(C)cc1 | – | inactive: 11.4%
COc1ccccc1C(=O)NC(C)c1cccc2ccccc12 (stereo not given) | – | inactive: 0.0953%
CNC(=S)N(CCc1c(C)[nH]c2ccc(C)cc12)Cc1cccs1 | inconclusive: 20 µM [inhibitor, partial curve, poor fit] | –
COc1ccc(-c2nnc(NC(=O)c3ccc(F)cc3)o2)cc1 | inconclusive: 8.91 µM [inhibitor, partial curve] | –
O=C(NC(c1cccnc1)C(F)(F)F)c1cc(COc2ccc3c(c2)CCCC3)on1 (stereo not given) | inconclusive: 4.47 µM [inhibitor, partial curve, poor fit] | –
Cc1cccc(N2CCN(S(=O)(=O)c3cc(-c4cc(C)no4)ccc3C)CC2C)c1 (stereo not given) | inconclusive: 2.24 µM [inhibitor, full curve, poor fit] | –
COC(=O)COc1cccc2c(=O)n(CC(=O)NCc3ccc(F)cc3)ccc12 | active: 0.631 µM | –
CC(Oc1ccc2c(-c3ccccc3)cc(=O)oc2c1)C(=O)NC(Cc1c[nH]c2ccc(O)cc12)C(=O)O (stereo not given) | inconclusive: 2.82 µM [inhibitor, single point] | –
Cc1ccc(Nc2n[nH]c(C)c2[N+](=O)[O-])cc1C | – | inactive: -0.87%
COCCN1CCN(C(=O)c2cc(COc3ccc(F)c(F)c3)on2)CC1 | – | inactive: 2.22%
CCc1nnc(NC(=O)c2ccc(S(=O)(=O)N(C)c3ccccc3)cc2)o1 | inconclusive: 10 µM [inhibitor, partial curve] | –
O=C(NN1CCOCC1)c1cnn2c(C(F)F)cc(-c3ccccc3)nc12 | inconclusive: 5.01 µM [inhibitor, single point] | –
CCN1CCN(C2=C(NS(=O)(=O)c3ccc(C)cc3)C(=O)c3ccccc3C2=O)CC1 | inconclusive: 10 µM [inhibitor, partial curve, poor fit] | –
C/C(=N/NC(=O)c1ccccn1)c1ccco1 | inconclusive: 3.55 µM [inhibitor, partial curve] | –
O=C(C1=C[C@@H](C2CCCCC2)C[C@@H](OCc2ccc(CO)cc2)O1)N1CCN(Cc2ccc3c(c2)OCO3)CC1 | inconclusive: 12.6 µM [inhibitor, single point] | –

SMILES | Potency | activity change, negative = inhibition
COc1ccc(Br)cc1C(C[N+](=O)[O-])c1c(N)n(C)c(=O)n(C)c1=O (stereo not given) | active: 3.55 µM | –
COc1cc(O)c(C(CCN2CCCCC2)c2ccc3c(c2)OCO3)c(OC)c1 (stereo not given) | inconclusive: 0.794 µM [inhibitor, partial curve, poor fit] | –
CCOC(=O)C1CCN(C(=O)c2ccc(NS(=O)(=O)c3ccc(F)cc3C)cc2)CC1 | – | inactive: -7.79%
CCCCN(C)Cc1c(O)ccc2c(=O)c(-c3ccccc3OC)coc12 | – | inactive: -0.971%
Cc1ccc(Cl)cc1Nc1nc(-c2sc(NC(=O)c3ccco3)nc2C)cs1 | active: 7.94 µM | –
CCc1ccc(C2c3[nH]c4ccccc4c3CCN2C(=O)c2cc[n+]([O-])cc2)cc1 (stereo not given) | inconclusive: 28.2 µM [inhibitor, single point] | –
S=C(NCCc1ccccc1)NC1CCC(NC(=S)NCCc2ccccc2)CC1 (stereo not given) | – | inactive: 10.6%
COc1ccccc1OCc1cc(C(=O)N(C)CCC2CCCCO2)no1 (stereo not given) | inconclusive: 5.62 µM [inhibitor, partial curve, poor fit] | –
CCOc1ccc(C2C([N+](=O)[O-])=C(C)N(C)C(=O)N2C)cc1OC (stereo not given) | inconclusive: 8.91 µM [inhibitor, partial curve, poor fit] | –
CC(C)(C)NC(=O)COC(=O)CNC(=O)c1cc(Cl)cc([N+](=O)[O-])c1 | inconclusive: 12.6 µM [inhibitor, single point] | –
COc1ccc(CCNC(=O)c2nc3ncccn3n2)cc1OC | – | inactive: 4.3%
CC(C)C(NC(=O)c1cccc(S(=O)(=O)N2CCOCC2)c1)C(=O)NCc1ccc(Cl)cc1 (stereo not given) | inconclusive: 0.0141 µM [inhibitor, full curve, poor fit] | –
CC(C)OC(=O)c1ccc(N2CCN(c3ccccc3F)CC2)nc1 | inconclusive: 10 µM [inhibitor, single point] | –
NC(N)=N/N=C/c1ccc(Br)cc1 | inconclusive: 2 µM [inhibitor, full curve, poor fit] | –
Cc1cc(=O)n2[nH]c(C(F)(F)F)c(-c3ccccc3)c2n1 | – | inactive: 6.87%
O=C(OCC(=O)N1CCCCCC1)c1cccnc1Cl | inconclusive: 1 µM [inhibitor, partial curve, poor fit] | –
O=C(Nc1ccc(N2CCN(C(=O)c3ccco3)CC2)c(Cl)c1)c1cc2ccccc2o1 | – | inactive: -10.8%
O=C(Cc1ccc([N+](=O)[O-])cc1)N1CCN(c2ccc([N+](=O)[O-])cc2)CC1 | inconclusive: 4.47 µM [inhibitor, single point] | –
O=C(CCc1ccccc1)NC(=S)Nc1ccccc1[N+](=O)[O-] | – | inactive: -1.9%
Cc1ccc(C(=O)Nc2cccc(S(=O)(=O)N3CCCCC3)c2)cc1S(=O)(=O)N1CCOCC1 | inconclusive: 3.16 µM [inhibitor, partial curve, poor fit] | –
O=[N+]([O-])c1ccc(S(=O)(=O)c2cccc(C(F)(F)F)c2)nc1 | – | inactive: -12.8%
OCCOCCn1c(C2CCCN2c2nc(-c3ccc(F)cc3)cs2)nc2cc(C(F)(F)F)ccc21 (stereo not given) | – | inactive: -8.47%

Some of the entries so far, as comma-separated lines.
SMILES,Potency,"activity change, negative = inhibition"
Cc1ccc(Cl)cc1Nc1nc(-c2sc(NC(=O)c3ccco3)nc2C)cs1,active: 7.94 µM,–
CCc1ccc(C2c3[nH]c4ccccc4c3CCN2C(=O)c2cc[n+]([O-])cc2)cc1 (stereo not given),"inconclusive: 28.2 µM [inhibitor, single point]",–
S=C(NCCc1ccccc1)NC1CCC(NC(=S)NCCc2ccccc2)CC1 (stereo not given),–,inactive: 10.6%
COc1ccccc1OCc1cc(C(=O)N(C)CCC2CCCCO2)no1 (stereo not given),"inconclusive: 5.62 µM [inhibitor, partial curve, poor fit]",–
CCOc1ccc(C2C([N+](=O)[O-])=C(C)N(C)C(=O)N2C)cc1OC (stereo not given),"inconclusive: 8.91 µM [inhibitor, partial curve, poor fit]",–
CC(C)(C)NC(=O)COC(=O)CNC(=O)c1cc(Cl)cc([N+](=O)[O-])c1,"inconclusive: 12.6 µM [inhibitor, single point]",–
COc1ccc(CCNC(=O)c2nc3ncccn3n2)cc1OC,–,inactive: 4.3%
CC(C)C(NC(=O)c1cccc(S(=O)(=O)N2CCOCC2)c1)C(=O)NCc1ccc(Cl)cc1 (stereo not given),"inconclusive: 0.0141 µM [inhibitor, full curve, poor fit]",–
CC(C)OC(=O)c1ccc(N2CCN(c3ccccc3F)CC2)nc1,"inconclusive: 10 µM [inhibitor, single point]",–
NC(N)=N/N=C/c1ccc(Br)cc1,"inconclusive: 2 µM [inhibitor, full curve, poor fit]",–
Cc1cc(=O)n2[nH]c(C(F)(F)F)c(-c3ccccc3)c2n1,–,inactive: 6.87%
O=C(OCC(=O)N1CCCCCC1)c1cccnc1Cl,"inconclusive: 1 µM [inhibitor, partial curve, poor fit]",–
O=C(Nc1ccc(N2CCN(C(=O)c3ccco3)CC2)c(Cl)c1)c1cc2ccccc2o1,–,inactive: -10.8%
O=C(Cc1ccc([N+](=O)[O-])cc1)N1CCN(c2ccc([N+](=O)[O-])cc2)CC1,"inconclusive: 4.47 µM [inhibitor, single point]",–
O=C(CCc1ccccc1)NC(=S)Nc1ccccc1[N+](=O)[O-],–,inactive: -1.9%
Cc1ccc(C(=O)Nc2cccc(S(=O)(=O)N3CCCCC3)c2)cc1S(=O)(=O)N1CCOCC1,"inconclusive: 3.16 µM [inhibitor, partial curve, poor fit]",–
O=[N+]([O-])c1ccc(S(=O)(=O)c2cccc(C(F)(F)F)c2)nc1,–,inactive: -12.8%
OCCOCCn1c(C2CCCN2c2nc(-c3ccc(F)cc3)cs2)nc2cc(C(F)(F)F)ccc21 (stereo not given),–,inactive: -8.47%
